According to patent publication US20200308222A1 (DSM IP ASSETS B.V., priority 2017, published 2020):

Test: general procedure: Fmoc solid-phase peptide synthesis; Fmoc-ramage-resin (loading approx. 0.5 mmol/g) for unsubstituted amides; 2-chloro-trityl-resin (approx. 0.5 mmol/g) for; TBTU / DIPEA
Conditions: whole synthesis; for isolated yield: scale of the general procedure approx. 2.0 g resin (loading approx. 0.5 mmol/g)

With PhBu-His-D-Phe-Arg-L-2NaphAla-NH2 *2TFA the isolated mass (2TFA) was 425 mg and the isolated yield (2TFA) was 41%.

PhBu-His-D-Phe-Arg-Trp-N(Propyl)2 *2TFA showed an isolated mass (2TFA) of 262 mg and an isolated yield (2TFA) of 33%.

PhBu-His-D-Phe-Dab-Trp-NH2 *2TFA showed an isolated mass (2TFA) of 374 mg and an isolated yield (2TFA) of 37%.

With PhBu-His-D-Phe-Arg-Trp-NH-Octyl *2TFA the isolated mass (2TFA) was 279 mg and the isolated yield (2TFA) was 28%.

Work on “4-MeO—PhBu-His-D-Phe-Arg-Trp-NH2 × 2 AcOH” yielded an isolated mass (2 AcOH) of 386 mg and an isolated yield (2 AcOH) of 13%.

With PhBu-His-D-Phe-Arg-Trp-NH-Bn *2TFA the isolated mass (2TFA) was 209 mg and the isolated yield (2TFA) was 11%.

Substance PhBu-His-D-Phe-Arg-D-2NaphAla-NH2 *2TFA has an isolated mass (2TFA) of 307 mg and an isolated yield (2TFA) of 31%.

For “PhBu-His-D-Phe-Arg-Trp-NH—CH2—CH(OH)—CH2OH *2TFA”, the isolated mass (2TFA) was 227 mg and the isolated yield (2TFA) was 18%.
